Measured values as given in the supplement of paper PMC4604168 (melanoma cell lines).
The list shows a part of the results. Single values are uncertain, as repeats are few or missing.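 Imaging used 1,536-well plates; nuclei positive for cleaved PARP by antibody were divided by total DNA-stained nuclei to yield the apoptosis fraction. Doses for screening kept most cells viable, and cell lines differ markedly in resting and induced cleaved-PARP levels.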

Assays:
Assay in all cases: cleaved PARP positive nuclei fraction relative to DMSO control; melanoma cells; higher = more apoptosis
Settings in all cases: library dose: low library concentration; 72 h
[1] = test system: 501Mel
[2] = test system: A101D
[3] = test system: A2058
[4] = test system: A375
[5] = test system: C32
[6] = test system: CBRC013 (line from a melanoma biopsy)
[7] = test system: CBRC014 (line from a melanoma biopsy)
[8] = test system: CBRC016 (line from a melanoma biopsy)
[9] = test system: CBRC017 (line from a melanoma biopsy)
[10] = test system: CBRC034 (line from a melanoma biopsy)
[11] = test system: COLO792
[12] = test system: COLO800
[13] = test system: COLO829
[14] = test system: G361
[15] = test system: IPC-298
[16] = test system: IST-MEL1
[17] = test system: LB2518-MEL
[18] = test system: LOXIMVI

Row | SMILES | cleaved PARP positive nuclei fraction [1] [%] | cleaved PARP positive nuclei fraction [2] [%] | cleaved PARP positive nuclei fraction [3] [%] | cleaved PARP positive nuclei fraction [4] [%] | cleaved PARP positive nuclei fraction [5] [%] | cleaved PARP positive nuclei fraction [6] [%] | cleaved PARP positive nuclei fraction [7] [%] | cleaved PARP positive nuclei fraction [8] [%] | cleaved PARP positive nuclei fraction [9] [%] | cleaved PARP positive nuclei fraction [10] [%] | cleaved PARP positive nuclei fraction [11] [%] | cleaved PARP positive nuclei fraction [12] [%] | cleaved PARP positive nuclei fraction [13] [%] | cleaved PARP positive nuclei fraction [14] [%] | cleaved PARP positive nuclei fraction [15] [%] | cleaved PARP positive nuclei fraction [16] [%] | cleaved PARP positive nuclei fraction [17] [%] | cleaved PARP positive nuclei fraction [18] [%]
1 | CC1(C)NC(=O)N(c2ccc([N+](=O)[O-])c(C(F)(F)F)c2)C1=O [nilutamide] + Cn1cc(/C=C2\C(=O)Nc3cccnc32)c2ccccc21 [GW441756] (first compound 1 µM, partner dose 0.4 µM) | 74.5 | 159 | 79.5 | 85.4 | 104 | 259 | 198 | 163 | 64.4 | 61.2 | 69 | 66.6 | 33.9 | 94.1 | 40.1 | 594 | 94.5 | 59.4
2 | OCCn1cc(-c2cnc3nnn(Cc4ccc5ncccc5c4)c3n2)cn1 + O=C(O)C(=O)Nc1sc2c(c1C(=O)O)CCNC2 [TCS401] (first compound 1 µM, partner dose 1.66667 µM) | 96.6 | 108 | 113 | 30.1 | 126 | 229 | 89.9 | 104 | 156 | 46.2 | 163 | 84 | 52.2 | 76.1 | 28.4 | 85.1 | 87.9 | 111
3 | Cc1cc(N2CCOCC2)cc2[nH]c(-c3c(NC[C@@H](O)c4cccc(Cl)c4)cc[nH]c3=O)nc12 + Cc1cc([N+](=O)[O-])ccc1NS(=O)(=O)c1cc(Cl)ccc1Cl [FH535] (first compound 0.2 µM, partner dose 1 µM) | 103 | 231 | 95.1 | 224 | 47.2 | 199 | 148 | 157 | 153 | 143 | 60.9 | 231 | 122 | 195 | 39.1 | 151 | 101 | 74.1
4 | OCCn1cc(-c2cnc3nnn(Cc4ccc5ncccc5c4)c3n2)cn1 + CC(C)CCN1c2nc(Nc3cc(F)c(O)c(F)c3)ncc2N(C)C(=O)C1C [BID1870] (first compound 1 µM, partner dose 0.2 µM) | 77.3 | 247 | 28.5 | 65.3 | 150 | 88.8 | 82.2 | 85.6 | 122 | 77.6 | 180 | 32.8 | 72.5 | 173 | 85.1 | 69.2 | 78.6 | 37.6
5 | Cn1cncc1[C@@](N)(c1ccc(Cl)cc1)c1ccc2c(c1)c(-c1cccc(Cl)c1)cc(=O)n2C [tipifarnib] + O=C(O)C(=O)Nc1sc2c(c1C(=O)O)CCNC2 [TCS401] (first compound 0.01 µM, partner dose 1.66667 µM) | 88.4 | 42.2 | 188 | 173 | 162 | 190 | 91.2 | 47.4 | 216 | 156 | 93 | 76.3 | 57.8 | 85.3 | 169 | 260 | 86.1 | 143
6 | CO[C@@H]1[C@H](N(C)C(=O)c2ccccc2)C[C@H]2O[C@]1(C)n1c3ccccc3c3c4c(c5c6ccccc6n2c5c31)C(=O)NC4 [Midostaurin] + O=S(=O)(c1ccccc1)N(CC(F)(F)F)c1ccc(C(O)(C(F)(F)F)C(F)(F)F)cc1 [T0901317] (first compound 0.08 µM, partner dose 1.4 µM) | 144 | 38.9 | 97.3 | 101 | 188 | 108 | 117 | 58.7 | 76.4 | 44.2 | 112 | 80.8 | 156 | 89.5 | 167 | 176 | 80 | 247
7 | COCC[n+]1c2c(n(Cc3cnccn3)c1C)C(=O)c1ccccc1C2=O + CCCCCCCCCCCC1=C(O)C(=O)C=C(O)C1=O [Embelin] (first compound 0.0004 µM, partner dose 1.2 µM) | 74.8 | 112 | 94.2 | 58.3 | 172 | 111 | 93.5 | 79.9 | 147 | 42.3 | 128 | 97.5 | 84.6 | 89.4 | 90.4 | 46.2 | 86.4 | 131
8 | Cc1ccc(NC(=O)c2cccc(N(C)C)c2)cc1NC(=O)c1ccc(O)cc1 + O=S(=O)(c1ccccc1)N(CC(F)(F)F)c1ccc(C(O)(C(F)(F)F)C(F)(F)F)cc1 [T0901317] (first compound 2 µM, partner dose 1.4 µM) | 98.4 | 53.6 | 120 | 98.9 | 129 | 302 | 124 | 34.5 | 103 | 52.6 | 55.3 | 99.6 | 171 | 164 | 74.5 | 31.1 | 177 | 41
9 | COCC[n+]1c2c(n(Cc3cnccn3)c1C)C(=O)c1ccccc1C2=O + COc1ccc(COc2ccc(Cc3cnc(N)nc3N)cc2OC)cc1 [GW2580] (first compound 0.0004 µM, partner dose 1 µM) | 159 | 360 | 102 | 450 | 119 | 65 | 89.8 | 56.4 | 81.2 | 39 | 58.5 | 70.2 | 148 | 83 | 145 | 93 | 93.2 | 74.9

Some values from above.
cleaved PARP positive nuclei fraction [14] [%], Cn1cncc1[C@@](N)(c1ccc(Cl)cc1)c1ccc2c(c1)c(-c1cccc(Cl)c1)cc(=O)n2C [tipifarnib] + O=C(O)C(=O)Nc1sc2c(c1C(=O)O)CCNC2 [TCS401] (first compound 0.01 µM, partner dose 1.66667 µM) reads 85.3
cleaved PARP positive nuclei fraction [9] [%], Cc1cc(N2CCOCC2)cc2[nH]c(-c3c(NC[C@@H](O)c4cccc(Cl)c4)cc[nH]c3=O)nc12 + Cc1cc([N+](=O)[O-])ccc1NS(=O)(=O)c1cc(Cl)ccc1Cl [FH535] (first compound 0.2 µM, partner dose 1 µM) reads 153
